Results are given in words; binding and its absence hold for the method and conditions named. In cells and extracts the contact can be indirect. Some binding calls cover weakened binding; strength is not graded here. For part of these data: Tags and fused reporters may be left off the sequences shown. Values belong to the substance of their own block, whether it stands above or below them.
Assays:
Assay in all cases: co-IP
[1] = target: T1, wild-type (WT) C/EBPβ (chicken) (UniProt Q05826)
T1 sequence: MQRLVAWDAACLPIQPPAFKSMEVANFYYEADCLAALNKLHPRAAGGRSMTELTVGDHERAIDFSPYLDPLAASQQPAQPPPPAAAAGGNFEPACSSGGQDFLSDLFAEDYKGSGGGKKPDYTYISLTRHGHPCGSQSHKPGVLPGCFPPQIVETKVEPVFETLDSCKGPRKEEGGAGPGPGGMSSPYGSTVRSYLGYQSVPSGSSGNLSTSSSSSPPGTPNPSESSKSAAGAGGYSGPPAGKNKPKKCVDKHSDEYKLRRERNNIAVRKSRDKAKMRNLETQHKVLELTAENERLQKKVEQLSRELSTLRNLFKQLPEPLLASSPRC

By UniProt entry, the sequences of proteins in these tests, tags left out. Where a name states a change or a piece, a line headed by the entry shows the natural chain unless it says otherwise.
UniProt O95983: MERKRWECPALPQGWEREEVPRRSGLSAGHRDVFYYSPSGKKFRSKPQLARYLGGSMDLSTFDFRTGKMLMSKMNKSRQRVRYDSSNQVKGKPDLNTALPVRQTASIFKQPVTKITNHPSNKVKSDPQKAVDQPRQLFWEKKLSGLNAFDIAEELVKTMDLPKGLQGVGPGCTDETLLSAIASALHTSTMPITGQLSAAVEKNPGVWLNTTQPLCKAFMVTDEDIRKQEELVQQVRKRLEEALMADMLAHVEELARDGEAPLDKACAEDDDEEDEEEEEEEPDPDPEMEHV
UniProt Q9UBB5: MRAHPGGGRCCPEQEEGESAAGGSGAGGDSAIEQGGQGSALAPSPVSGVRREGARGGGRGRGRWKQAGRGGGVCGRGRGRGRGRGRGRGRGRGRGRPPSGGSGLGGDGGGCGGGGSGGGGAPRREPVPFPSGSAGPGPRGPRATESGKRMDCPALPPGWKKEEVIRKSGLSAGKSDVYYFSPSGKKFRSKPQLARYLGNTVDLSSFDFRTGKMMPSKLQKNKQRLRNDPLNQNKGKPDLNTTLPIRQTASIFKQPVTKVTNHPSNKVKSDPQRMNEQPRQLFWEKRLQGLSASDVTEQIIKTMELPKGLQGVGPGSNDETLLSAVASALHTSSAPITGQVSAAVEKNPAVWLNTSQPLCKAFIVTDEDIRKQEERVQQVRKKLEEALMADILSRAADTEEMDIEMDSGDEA
UniProt Q9NPF5: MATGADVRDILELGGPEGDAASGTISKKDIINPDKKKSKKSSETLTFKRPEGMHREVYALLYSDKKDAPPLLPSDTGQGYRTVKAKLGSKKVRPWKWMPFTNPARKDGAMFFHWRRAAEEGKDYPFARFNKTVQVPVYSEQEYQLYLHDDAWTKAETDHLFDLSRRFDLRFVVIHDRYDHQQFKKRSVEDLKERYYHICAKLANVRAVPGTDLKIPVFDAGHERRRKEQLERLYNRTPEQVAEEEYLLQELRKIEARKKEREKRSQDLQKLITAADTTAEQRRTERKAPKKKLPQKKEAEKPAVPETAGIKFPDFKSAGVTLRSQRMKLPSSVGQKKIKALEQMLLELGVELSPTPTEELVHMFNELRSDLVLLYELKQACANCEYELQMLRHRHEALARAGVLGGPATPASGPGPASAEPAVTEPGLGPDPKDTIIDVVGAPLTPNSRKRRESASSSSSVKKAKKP
UniProt Q9Y5B9: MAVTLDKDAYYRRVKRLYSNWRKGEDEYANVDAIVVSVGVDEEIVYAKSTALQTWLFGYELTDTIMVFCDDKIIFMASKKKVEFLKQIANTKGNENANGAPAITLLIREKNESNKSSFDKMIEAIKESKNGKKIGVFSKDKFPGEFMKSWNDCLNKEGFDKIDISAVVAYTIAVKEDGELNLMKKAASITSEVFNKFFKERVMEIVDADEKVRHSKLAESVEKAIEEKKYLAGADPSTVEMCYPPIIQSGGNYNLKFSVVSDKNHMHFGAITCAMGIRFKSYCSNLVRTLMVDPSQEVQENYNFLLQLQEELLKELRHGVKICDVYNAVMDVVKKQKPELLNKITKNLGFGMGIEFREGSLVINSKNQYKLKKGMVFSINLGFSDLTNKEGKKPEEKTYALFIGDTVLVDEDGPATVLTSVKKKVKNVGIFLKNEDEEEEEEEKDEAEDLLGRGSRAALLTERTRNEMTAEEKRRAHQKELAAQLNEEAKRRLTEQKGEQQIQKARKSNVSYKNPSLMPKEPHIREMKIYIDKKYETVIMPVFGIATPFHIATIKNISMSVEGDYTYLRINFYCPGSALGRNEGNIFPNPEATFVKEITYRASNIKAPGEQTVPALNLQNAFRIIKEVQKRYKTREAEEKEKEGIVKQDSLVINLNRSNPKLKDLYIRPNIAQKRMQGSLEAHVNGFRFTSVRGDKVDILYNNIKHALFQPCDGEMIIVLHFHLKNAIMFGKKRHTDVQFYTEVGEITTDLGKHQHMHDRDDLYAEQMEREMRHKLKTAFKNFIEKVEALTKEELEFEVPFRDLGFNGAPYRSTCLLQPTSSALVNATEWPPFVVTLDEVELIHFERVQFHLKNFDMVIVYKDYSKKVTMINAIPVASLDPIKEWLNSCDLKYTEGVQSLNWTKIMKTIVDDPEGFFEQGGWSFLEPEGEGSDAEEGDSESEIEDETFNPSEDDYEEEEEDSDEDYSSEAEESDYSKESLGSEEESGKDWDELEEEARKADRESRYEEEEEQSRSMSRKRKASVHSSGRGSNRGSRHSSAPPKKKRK
UniProt Q9BQA1: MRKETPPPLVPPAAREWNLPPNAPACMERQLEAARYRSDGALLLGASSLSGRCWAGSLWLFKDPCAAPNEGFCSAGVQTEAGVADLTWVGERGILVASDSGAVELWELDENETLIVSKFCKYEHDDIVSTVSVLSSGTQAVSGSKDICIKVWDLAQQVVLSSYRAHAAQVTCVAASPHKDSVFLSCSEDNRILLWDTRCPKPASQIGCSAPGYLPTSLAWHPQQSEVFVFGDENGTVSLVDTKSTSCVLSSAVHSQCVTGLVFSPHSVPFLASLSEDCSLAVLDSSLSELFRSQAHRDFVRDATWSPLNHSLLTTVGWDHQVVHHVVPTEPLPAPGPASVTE
UniProt Q92830: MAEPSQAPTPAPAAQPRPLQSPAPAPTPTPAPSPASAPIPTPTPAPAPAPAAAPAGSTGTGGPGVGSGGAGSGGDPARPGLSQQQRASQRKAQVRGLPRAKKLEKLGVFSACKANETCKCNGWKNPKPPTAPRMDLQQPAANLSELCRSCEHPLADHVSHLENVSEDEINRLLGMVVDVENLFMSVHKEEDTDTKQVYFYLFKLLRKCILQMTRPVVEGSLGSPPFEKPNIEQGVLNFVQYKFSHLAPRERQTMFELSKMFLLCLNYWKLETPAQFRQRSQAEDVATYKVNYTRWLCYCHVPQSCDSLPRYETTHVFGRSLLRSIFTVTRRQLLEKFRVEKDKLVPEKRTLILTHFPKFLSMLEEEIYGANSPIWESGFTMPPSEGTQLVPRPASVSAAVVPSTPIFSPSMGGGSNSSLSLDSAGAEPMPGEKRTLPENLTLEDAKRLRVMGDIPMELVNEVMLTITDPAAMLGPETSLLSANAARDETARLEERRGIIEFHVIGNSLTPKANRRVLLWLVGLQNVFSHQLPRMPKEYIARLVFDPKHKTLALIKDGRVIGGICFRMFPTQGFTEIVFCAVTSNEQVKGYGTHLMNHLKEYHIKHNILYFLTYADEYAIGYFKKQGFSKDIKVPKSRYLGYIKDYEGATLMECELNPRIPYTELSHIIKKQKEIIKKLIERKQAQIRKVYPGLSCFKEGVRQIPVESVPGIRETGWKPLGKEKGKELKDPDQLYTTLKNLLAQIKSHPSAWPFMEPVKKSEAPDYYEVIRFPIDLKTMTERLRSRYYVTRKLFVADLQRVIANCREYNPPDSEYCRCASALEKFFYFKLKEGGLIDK

FLAG-tagged LAP* C/EBPβ = target: T2, FLAG-tagged LAP* C/EBPβ (UniProt Q05826)
T2 sequence: T1 sequence

FLAG-tagged C/EBPβ = target: T3, FLAG-tagged C/EBPβ (UniProt Q05826)
T3 sequence: T1 sequence

MBD3 (GFDP-tagged) = MBD3 (GFDP-tagged) (UniProt O95983)
MBD2 (HA-tagged) = MBD2 (HA-tagged) (UniProt Q9UBB5)

binding [1]: binds
binding (FLAG-tagged LAP* C/EBPβ): binds
Substance: DNA methyltransferase-associated protein DMAP1 (from UniProt Q9NPF5 1-467)

binding (FLAG-tagged C/EBPβ): binds
Substance: FACT complex (GFP-tagged Spt16 and SSRP1) (from UniProt Q9Y5B9 1-1047; Q08945 1-709)

binding (MBD3 (GFDP-tagged)): no binding
binding (MBD2 (HA-tagged)): binds
Substance: WDR77(MEP50)/PRMT5 sub-module (from UniProt Q9BQA1 1-342; O14744 1-637) (complex)

binding (FLAG-tagged LAP* C/EBPβ): binds
Substance: histone acetyltransferase GCN5 (from UniProt Q92830 1-837)

From publication doi:10.1101/238709
